# Article PMC4941368
# Protein sequences, listed by entry. Tags and fused reporters are not part of them.
# UniProt P01106: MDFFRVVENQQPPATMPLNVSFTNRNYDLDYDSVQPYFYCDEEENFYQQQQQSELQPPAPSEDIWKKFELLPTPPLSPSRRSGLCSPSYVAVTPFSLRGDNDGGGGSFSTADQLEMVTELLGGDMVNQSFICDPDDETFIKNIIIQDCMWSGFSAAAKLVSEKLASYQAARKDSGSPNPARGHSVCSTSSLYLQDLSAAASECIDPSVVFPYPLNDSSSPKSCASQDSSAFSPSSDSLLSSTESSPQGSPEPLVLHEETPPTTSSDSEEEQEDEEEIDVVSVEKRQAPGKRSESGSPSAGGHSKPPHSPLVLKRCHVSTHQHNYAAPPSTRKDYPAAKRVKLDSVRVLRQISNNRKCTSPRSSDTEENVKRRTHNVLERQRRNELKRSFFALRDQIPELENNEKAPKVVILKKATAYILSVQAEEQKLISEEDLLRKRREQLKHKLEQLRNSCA
# UniProt P49715: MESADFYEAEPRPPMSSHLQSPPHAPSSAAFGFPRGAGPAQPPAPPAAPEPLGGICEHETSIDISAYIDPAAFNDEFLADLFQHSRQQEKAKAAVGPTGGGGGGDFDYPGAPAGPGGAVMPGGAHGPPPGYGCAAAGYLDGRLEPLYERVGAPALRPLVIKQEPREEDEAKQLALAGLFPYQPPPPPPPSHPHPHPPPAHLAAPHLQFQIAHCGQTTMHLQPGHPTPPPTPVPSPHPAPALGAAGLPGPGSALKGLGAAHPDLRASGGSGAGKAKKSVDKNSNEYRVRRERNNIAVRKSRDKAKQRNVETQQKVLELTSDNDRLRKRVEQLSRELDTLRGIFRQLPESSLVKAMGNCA
# Results are given in words; binding and its absence hold for the method and conditions named. Binding seen in cells or lysates may run through a third protein. Some binding calls cover weakened binding; strength is not graded here.
# Target: c-myc (endogenous, Huh7 cells) (human (endogenous in Huh-7)) (UniProt P01106)
# Experiment: co-IP; lysate of Huh-7 cells transfected with pCDNA3.1-C/EBPα; precipitated with mouse anti-c-myc (sc-40) or mouse control IgG at 4°C overnight, protein G-sepharose; immunoblot with anti-flag antibody
substance,measurement,value
C/EBPα (expressed from pCDNA3.1-C/EBPα) (from UniProt P49715 1-358),binding,binds
